# In the supplement of paper PMC8728848:
# This is one part of the list.
# B1: Epa21 (Candida glabrata) (protein)
# chain: MGSSHHHHHHSSGLVPRGSHMASTPNIESHPQGCSPVDTSGIKPGLKMDLYRFPITPPGTGCWSWDWLTVTPDFPRSGYWKWPKIAEVDGVVGPLHLDSGHPTCDPLTSVLPHGFNYLQSITTTNFTMVLHGYFVPKQSGKYTFEFKADDALLLNLGAGNAFSCCDYNNSQYNQGEYLAYAIWSKNNQTATLYLEKGIYYPIRVFYHNRCCGAYMDVVYYFNDSPIPNRDFSGLLFSIPDSDSCDANI
# Experiments:
# Test in all cases: glycan array binding signal (z-score within array); higher = stronger binding
# Conditions in all cases: glycan notation: IUPAC condensed, linker removed
# Neu5Ac(a2-3)Gal = molecular target: Neu5Ac(a2-3)Gal
# Summary of the method: (§1)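 Columns mapping to the same glycan were averaged after glycan names were converted to IUPAC-condensed notation. The data come from 3228 arrays in the Consortium for Functional Glycomics database, limited to those with an available protein sequence. Binding is reported as a within-array Z-score averaged across arrays of one protein sequence and across linkers.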
# [1] = molecular target: Neu5Ac(a2-3)Gal(b1-3)GalNAc
# Summary of the method: as §1
# [2] = molecular target: Neu5Ac(a2-3)Gal(b1-3)GalNAc(b1-3)Gal(a1-4)Gal(b1-4)Glc
# Summary of the method: as §1
# [3] = molecular target: Neu5Ac(a2-3)Gal(b1-3)GalNAc(b1-4)Gal(b1-4)Glc
# Summary of the method: as §1
# [4] = molecular target: Neu5Ac(a2-3)Gal(b1-3)GalNAc(b1-4)[Neu5Ac(a2-3)]Gal(b1-4)Glc
# Summary of the method: as §1
# [5] = molecular target: Neu5Ac(a2-3)Gal(b1-3)GalNAc(b1-4)[Neu5Ac(a2-8)Neu5Ac(a2-3)]Gal(b1-4)Glc
# Summary of the method: as §1
# [6] = molecular target: Neu5Ac(a2-3)Gal(b1-3)GalNAc6S
# Summary of the method: as §1
# [7] = molecular target: Neu5Ac(a2-3)Gal(b1-3)GlcNAc
# Summary of the method: as §1
# [8] = molecular target: Neu5Ac(a2-3)Gal(b1-3)GlcNAc(b1-2)Man
# Summary of the method: as §1
# [9] = molecular target: Neu5Ac(a2-3)Gal(b1-3)GlcNAc(b1-2)Man(a1-3)[GlcNAc(b1-4)][Neu5Ac(a2-3)Gal(b1-3)GlcNAc(b1-2)Man(a1-6)]Man(b1-4)GlcNAc(b1-4)GlcNAc
# Summary of the method: as §1
# [10] = molecular target: Neu5Ac(a2-3)Gal(b1-3)GlcNAc(b1-2)Man(a1-3)[Neu5Ac(a2-3)Gal(b1-3)GlcNAc(b1-2)Man(a1-6)]Man(b1-4)GlcNAc(b1-4)GlcNAc
# Summary of the method: as §1
# [11] = molecular target: Neu5Ac(a2-3)Gal(b1-3)GlcNAc(b1-2)[Neu5Ac(a2-3)Gal(b1-3)GlcNAc(b1-4)]Man(a1-6)[Neu5Ac(a2-3)Gal(b1-3)GlcNAc(b1-2)Man(a1-3)]Man(b1-4)GlcNAc(b1-4)GlcNAc
# Summary of the method: as §1
# [12] = molecular target: Neu5Ac(a2-3)Gal(b1-3)GlcNAc(b1-3)Gal(b1-3)GlcNAc
# Summary of the method: as §1
# [13] = molecular target: Neu5Ac(a2-3)Gal(b1-3)GlcNAc(b1-3)Gal(b1-4)GlcNAc
# Summary of the method: as §1
# [14] = molecular target: Neu5Ac(a2-3)Gal(b1-3)GlcNAc(b1-3)GalNAc
# Summary of the method: as §1
# [15] = molecular target: Neu5Ac(a2-3)Gal(b1-3)GlcNAc(b1-6)GalNAc
# Summary of the method: as §1
# [16] = molecular target: Neu5Ac(a2-3)Gal(b1-3)GlcNAc6S
# Summary of the method: as §1
# [17] = molecular target: Neu5Ac(a2-3)Gal(b1-3)[Fuc(a1-4)]GlcNAc
# Summary of the method: as §1
# [18] = molecular target: Neu5Ac(a2-3)Gal(b1-3)[Fuc(a1-4)]GlcNAc(b1-3)Gal(b1-3)[Fuc(a1-4)]GlcNAc
# Summary of the method: as §1
# [19] = molecular target: Neu5Ac(a2-3)Gal(b1-3)[Fuc(a1-4)]GlcNAc(b1-3)Gal(b1-4)[Fuc(a1-3)]GlcNAc
# Summary of the method: as §1
# [20] = molecular target: Neu5Ac(a2-3)Gal(b1-3)[GlcNAc(b1-6)]GalNAc
# Summary of the method: as §1
# [21] = molecular target: Neu5Ac(a2-3)Gal(b1-3)[Neu5Ac(a2-6)]GalNAc
# Summary of the method: as §1
# [22] = molecular target: Neu5Ac(a2-3)Gal(b1-3)[Neu5Ac(a2-6)]GlcNAc(b1-3)[Fuc(a1-3)[Gal(b1-4)]GlcNAc(b1-6)]Gal(b1-4)Glc
# Summary of the method: as §1
# [23] = molecular target: Neu5Ac(a2-3)Gal(b1-3)]Neu5Ac(a2-3)Gal(b1-4)]GlcNAc
# Summary of the method: as §1
# Neu5Ac(a2-3)Gal(b1-4)Glc = molecular target: Neu5Ac(a2-3)Gal(b1-4)Glc
# Summary of the method: as §1
# [24] = molecular target: Neu5Ac(a2-3)Gal(b1-4)GlcNAc
# Summary of the method: as §1
# [25] = molecular target: Neu5Ac(a2-3)Gal(b1-4)GlcNAc(b1-2)Man
# Summary of the method: as §1
# [26] = molecular target: Neu5Ac(a2-3)Gal(b1-4)GlcNAc(b1-2)Man(a1-3)[GlcNAc(b1-4)][Neu5Ac(a2-3)Gal(b1-4)GlcNAc(b1-2)Man(a1-6)]Man(b1-4)GlcNAc(b1-4)GlcNAc
# Summary of the method: as §1
# [27] = molecular target: Neu5Ac(a2-3)Gal(b1-4)GlcNAc(b1-2)Man(a1-3)[Neu5Ac(a2-3)Gal(b1-4)GlcNAc(b1-2)Man(a1-6)]Man(b1-4)GlcNAc(b1-4)GlcNAc
# Summary of the method: as §1
# [28] = molecular target: Neu5Ac(a2-3)Gal(b1-4)GlcNAc(b1-2)Man(a1-3)[Neu5Ac(a2-3)Gal(b1-4)GlcNAc(b1-2)Man(a1-6)]Man(b1-4)GlcNAc(b1-4)[Fuc(a1-6)]GlcNAc
# Summary of the method: as §1
# [29] = molecular target: Neu5Ac(a2-3)Gal(b1-4)GlcNAc(b1-2)Man(a1-3)[Neu5Ac(a2-6)Gal(b1-4)GlcNAc(b1-2)Man(a1-6)]Man(b1-4)GlcNAc(b1-4)GlcNAc
# Summary of the method: as §1
# [30] = molecular target: Neu5Ac(a2-3)Gal(b1-4)GlcNAc(b1-2)[Neu5Ac(a2-3)Gal(b1-4)GlcNAc(b1-4)]Man(a1-3)[GlcNAc(b1-4)][Neu5Ac(a2-3)Gal(b1-4)GlcNAc(b1-2)[Neu5Ac(a2-3)Gal(b1-4)GlcNAc(b1-6)]Man(a1-6)]Man(b1-4)GlcNAc(b1-4)GlcNAc
# Summary of the method: as §1
# [31] = molecular target: Neu5Ac(a2-3)Gal(b1-4)GlcNAc(b1-2)[Neu5Ac(a2-3)Gal(b1-4)GlcNAc(b1-4)]Man(a1-3)[GlcNAc(b1-4)][Neu5Ac(a2-3)Gal(b1-4)GlcNAc(b1-4)Man(a1-6)]Man(b1-4)GlcNAc(b1-4)GlcNAc
# Summary of the method: as §1
# [32] = molecular target: Neu5Ac(a2-3)Gal(b1-4)GlcNAc(b1-2)[Neu5Ac(a2-3)Gal(b1-4)GlcNAc(b1-6)]Man(a1-6)[Neu5Ac(a2-3)Gal(b1-4)GlcNAc(b1-2)Man(a1-3)][GlcNAc(b1-4)]Man(b1-4)GlcNAc(b1-4)GlcNAc
# Summary of the method: as §1
# [33] = molecular target: Neu5Ac(a2-3)Gal(b1-4)GlcNAc(b1-3)Gal
# Summary of the method: as §1
# [34] = molecular target: Neu5Ac(a2-3)Gal(b1-4)GlcNAc(b1-3)Gal(b1-3)GlcNAc
# Summary of the method: as §1
# [35] = molecular target: Neu5Ac(a2-3)Gal(b1-4)GlcNAc(b1-3)Gal(b1-4)GlcNAc
# Summary of the method: as §1
binder,measurement,setting,value
B1,glycan array binding signal (z-score),Neu5Ac(a2-3)Gal,-0.797
same,glycan array binding signal (z-score),[1],-0.287
same,glycan array binding signal (z-score),[2],-0.255
same,glycan array binding signal (z-score),[3],-0.321
same,glycan array binding signal (z-score),[4],0.041
same,glycan array binding signal (z-score),[5],-0.494
same,glycan array binding signal (z-score),[6],0.158
same,glycan array binding signal (z-score),[7],-0.169
same,glycan array binding signal (z-score),[8],-0.494
same,glycan array binding signal (z-score),[9],0.358
same,glycan array binding signal (z-score),[10],-0.261
same,glycan array binding signal (z-score),[11],0.284
same,glycan array binding signal (z-score),[12],-0.487
same,glycan array binding signal (z-score),[13],-0.39
same,glycan array binding signal (z-score),[14],-0.308
same,glycan array binding signal (z-score),[15],-0.052
same,glycan array binding signal (z-score),[16],-0.068
same,glycan array binding signal (z-score),[17],-0.234
same,glycan array binding signal (z-score),[18],-0.307
same,glycan array binding signal (z-score),[19],-0.065
same,glycan array binding signal (z-score),[20],1.2
same,glycan array binding signal (z-score),[21],0.141
same,glycan array binding signal (z-score),[22],-0.237
same,glycan array binding signal (z-score),[23],1.23
same,glycan array binding signal (z-score),Neu5Ac(a2-3)Gal(b1-4)Glc,0.54
same,glycan array binding signal (z-score),[24],-0.15
same,glycan array binding signal (z-score),[25],2.68
same,glycan array binding signal (z-score),[26],-0.308
same,glycan array binding signal (z-score),[27],-0.214
same,glycan array binding signal (z-score),[28],-0.327
same,glycan array binding signal (z-score),[29],-1.7
same,glycan array binding signal (z-score),[30],-0.23
same,glycan array binding signal (z-score),[31],-0.468
same,glycan array binding signal (z-score),[32],-0.463
same,glycan array binding signal (z-score),[33],-0.23
same,glycan array binding signal (z-score),[34],-0.478
same,glycan array binding signal (z-score),[35],-0.339

# Quoted at random: 2 records from the list.
binder,measurement,setting,value
B1,glycan array binding signal (z-score),[2],-0.255
same,glycan array binding signal (z-score),[7],-0.169
